The reference is the same well before dosing, and untreated signal decays as well.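 Fibroblast labels name human fibroblasts: mostly primary ones from tissues such as uterus (C12385, HUF), lung (H6013), bone (Hs27A), adrenal (HADF) and skin (WS1), plus mammary HMF and breast cancer-associated Hs343T. The cancer cells are basal-like or mesenchymal-like triple-negative breast cancer lines. The paper calls a changed response a hit when it shifts by more than 3x the replicate standard deviation. The tissue of the other fibroblasts is not given here.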
Tested on: Hs578T
Assay: relative JC-1 red fluorescence (viability) vs pre-drug, coculture with fibroblast (fraction); higher = more viable cancer cells
Protocol: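 JC-1 labelled TNBC cells cocultured 1:1 (1,500 cells each) with CellTrace Violet stained primary or stromal fibroblasts in 384-well plates in FluoroBrite medium, treated with one of 42 anticancer drugs at 0.1, 1, 10 or 100 uM. JC-1 red fluorescence (mitochondrial integrity in cancer cells only) was read by plate reader every 8 h for 72 h. Values are normalised to each well's pre-drug value. The stock of one drug was tenfold lower, so its dose labels may be too high.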

CCC1=C[C@@H]2CN(C1)Cc1c([nH]c3ccccc13)[C@@](C(=O)OC)(c1cc3c(cc1OC)N(C)[C@H]1[C@@](O)(C(=O)OC)[C@H](OC(C)=O)[C@]4(CC)C=CCN5CC[C@]31[C@@H]54)C2 [Vinorelbine]
relative JC-1 red fluorescence
Settings | 8 h | 16 h | 24 h | 32 h | 40 h | 48 h | 56 h | 64 h | 72 h
10 µM | 0.975 | 0.91581 | 0.8649 | 0.7784 | 0.6787 | 0.637 | 0.62 | 0.582 | 0.571
100 µM | 0.8213 | 0.51 | 0.427 | 0.3901 | 0.3372 | 0.295 | 0.2658 | 0.224 | 0.201

relative JC-1 red fluorescence
Settings | 8 h | 16 h | 24 h | 32 h | 40 h | 48 h | 56 h | 64 h | 72 h
10 µM, coculture fibroblast: C12385 | 0.8213 | 0.76 | 0.667 | 0.619 | 0.525 | 0.485 | 0.441 | 0.401 | 0.386
10 µM, coculture fibroblast: H6013 | 0.8736 | 0.8569 | 0.812 | 0.769 | 0.709 | 0.669 | 0.625 | 0.607 | 0.563
10 µM, coculture fibroblast: H6019 | 0.814 | 0.796 | 0.771 | 0.707 | 0.648 | 0.616 | 0.576 | 0.539 | 0.518
10 µM, coculture fibroblast: H6076 | 0.866 | 0.948 | 0.942 | 0.865 | 0.723 | 0.694 | 0.629 | 0.603 | 0.557
10 µM, coculture fibroblast: H6231 | 0.967 | 0.906 | 0.894 | 0.804 | 0.715 | 0.682 | 0.631 | 0.597 | 0.563
10 µM, coculture fibroblast: HADF | 0.916 | 0.876 | 0.801 | 0.736 | 0.667 | 0.637 | 0.583 | 0.554 | 0.502
10 µM, coculture fibroblast: HCFa | 0.9198 | 0.925 | 0.914 | 0.861 | 0.8 | 0.775 | 0.73 | 0.694 | 0.65
10 µM, coculture fibroblast: HCPF | 0.905 | 0.986 | 0.938 | 0.868 | 0.758 | 0.7221 | 0.658 | 0.607 | 0.542
10 µM, coculture fibroblast: HHSteC | 0.937 | 0.917 | 0.888 | 0.818 | 0.728 | 0.67 | 0.631 | 0.602 | 0.566
10 µM, coculture fibroblast: HMF | 0.92 | 0.839 | 0.979 | 0.908 | 0.7811 | 0.718 | 0.661 | 0.615 | 0.58
10 µM, coculture fibroblast: HPFa | 0.93 | 0.882 | 0.827 | 0.722 | 0.647 | 0.623 | 0.583 | 0.546 | 0.504
10 µM, coculture fibroblast: HUF | 0.8898 | 0.811 | 0.795 | 0.725 | 0.662 | 0.61 | 0.564 | 0.535 | 0.512
10 µM, coculture fibroblast: Hs27A | 0.956 | 0.92 | 0.867 | 0.787 | 0.7 | 0.686 | 0.676 | 0.664 | 0.629
10 µM, coculture fibroblast: Hs343T | 0.871 | 0.9691 | 0.919 | 0.875 | 0.739 | 0.692 | 0.623 | 0.575 | 0.536
10 µM, coculture fibroblast: WS1 | 0.825 | 0.753 | 0.681 | 0.609 | 0.56 | 0.526 | 0.4763 | 0.4393 | 0.407
100 µM, coculture fibroblast: C12385 | 0.721 | 0.436 | 0.282 | 0.173 | 0.128 | 0.102 | 0.0776 | 0.0624 | 0.0454
100 µM, coculture fibroblast: H6013 | 0.752 | 0.3942 | 0.328 | 0.282 | 0.24 | 0.213 | 0.18 | 0.16 | 0.123
100 µM, coculture fibroblast: H6019 | 0.802 | 0.443 | 0.34 | 0.243 | 0.208 | 0.185 | 0.164 | 0.148 | 0.13
100 µM, coculture fibroblast: H6076 | 0.787 | 0.511 | 0.398 | 0.363 | 0.311 | 0.292 | 0.253 | 0.219 | 0.191
100 µM, coculture fibroblast: H6231 | 0.804 | 0.509 | 0.372 | 0.34 | 0.281 | 0.258 | 0.22 | 0.19 | 0.169
100 µM, coculture fibroblast: HADF | 0.5804 | 0.335 | 0.267 | 0.235 | 0.208 | 0.189 | 0.162 | 0.15 | 0.116
100 µM, coculture fibroblast: HCFa | 0.894 | 0.642 | 0.501 | 0.412 | 0.36 | 0.338 | 0.305 | 0.28 | 0.235
100 µM, coculture fibroblast: HCPF | 0.962 | 0.579 | 0.351 | 0.297 | 0.239 | 0.214 | 0.202 | 0.158 | 0.131
100 µM, coculture fibroblast: HHSteC | 0.698 | 0.322 | 0.267 | 0.223 | 0.187 | 0.159 | 0.136 | 0.117 | 0.0833
100 µM, coculture fibroblast: HMF | 0.872 | 0.526 | 0.38 | 0.356 | 0.293 | 0.264 | 0.229 | 0.2 | 0.171
100 µM, coculture fibroblast: HPFa | 0.878 | 0.657 | 0.47 | 0.378 | 0.342 | 0.309 | 0.264 | 0.243 | 0.199
100 µM, coculture fibroblast: HUF | 0.796 | 0.682 | 0.594 | 0.438 | 0.36 | 0.303 | 0.265 | 0.24 | 0.217
100 µM, coculture fibroblast: Hs27A | 0.894 | 0.627 | 0.443 | 0.361 | 0.322 | 0.305 | 0.267 | 0.251 | 0.202
100 µM, coculture fibroblast: Hs343T | 0.832 | 0.459 | 0.406 | 0.385 | 0.322 | 0.289 | 0.249 | 0.212 | 0.191
100 µM, coculture fibroblast: WS1 | 0.656 | 0.306 | 0.253 | 0.172 | 0.128 | 0.111 | 0.084 | 0.0697 | 0.0541
